Measured values from patent US20130095098A1 (UCB, published 2013).
These are yes or no findings as the source states them, for the method shown. Some binding calls cover weakened binding; strength is not graded here.

Sequences of proteins named here, by UniProt entry; tags and fusion partners are left off. Residues count along the entry.
UniProt Q15116, residues 25-288: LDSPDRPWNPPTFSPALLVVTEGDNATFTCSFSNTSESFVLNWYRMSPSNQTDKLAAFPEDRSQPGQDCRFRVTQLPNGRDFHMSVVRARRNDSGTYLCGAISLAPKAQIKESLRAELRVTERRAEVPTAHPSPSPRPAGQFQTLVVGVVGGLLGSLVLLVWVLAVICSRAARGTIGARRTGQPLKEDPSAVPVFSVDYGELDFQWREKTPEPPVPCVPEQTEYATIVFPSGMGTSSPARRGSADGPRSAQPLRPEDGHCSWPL

Target: human PD-1 (Programmed Death 1), full-length, expressed on transiently transfected HEK293 cells (human) (UniProt Q15116)
Test: flow cytometry on HEK293 cells transiently transfected with human PD-1; FITC mouse anti-human IgG secondary

B1: antibody CA051-00948 (948 murine parental; cloned recombinant antibody derived from hybridoma Clone 10) (antibody, IgG1, V domains shown)
VH: DVQLQESGPGLVKPSQSLSLTCTVTGYSITSDYAWNWIRQFPGNKLEWMGYINYSGSTSYNPSLKSRISITRDTSKNQFFLQLNSVTTEDTATYYCARWIGSSAWYFDVWGAGTTVTVS
VL: DVLMTQTPLSLPVSLGDQASISCRSGQNIVHSNGNTYLEWYLQKPGQSPKLLIYKVSNRFFGVPDRISGSGSGTDFTLKISRVEAEDLGVYFCFQGSHVPFTFGSGTKLEIK
notes: also called Ab948
  binding: binds
